Measurements from PMC6505963.
These are yes or no findings as the source states them, for the method shown.

Protein sequences, listed by entry. Tags and fused reporters are not part of them. Lines headed by an entry give the natural chain unless they say otherwise; changes in a name come on top. Chains listed by the source or under a name are the forms on record and can include a tag or linker.
human BLM RQC domain (a.a. 1068–1209) (P54132, form named): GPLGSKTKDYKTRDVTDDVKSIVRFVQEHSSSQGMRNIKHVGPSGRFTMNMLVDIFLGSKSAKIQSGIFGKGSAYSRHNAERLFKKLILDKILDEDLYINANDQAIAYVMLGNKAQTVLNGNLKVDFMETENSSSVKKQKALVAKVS

Key:
[1] = molecular target: human BLM RQC domain (a.a. 1068–1209) (human) (UniProt P54132); test: AUC; sedimentation velocity, 20°C, 10 mM Tris-HCl (pH 7.5), 0.1 M NaCl, ~70 μM protein, 40,000 rpm; both purified
[2] = molecular target: human BLM RQC domain (a.a. 1068–1209) (human) (UniProt P54132); test: AUC; sedimentation equilibrium, 20°C, 10 mM Tris-HCl (pH 7.5), 0.1 M NaCl, 34, 67 and 200 μM protein, 29,000 rpm, single-species model; both purified

human BLM RQC domain (a.a. 1068–1209) (from UniProt P54132 1068-1209) (domain or fragment)
binding [1]: no binding (tested: ~70 μM) | binding [2]: no binding (tested: 34, 67 and 200 μM)
